Measured values from the supplement of paper PMC10849652.
Some of the results follow.

By UniProt entry, the sequences of proteins in these tests, tags left out. Where a name states a change or a piece, a line headed by the entry shows the natural chain unless it says otherwise.
UniProt O96017, whole entry, looked up: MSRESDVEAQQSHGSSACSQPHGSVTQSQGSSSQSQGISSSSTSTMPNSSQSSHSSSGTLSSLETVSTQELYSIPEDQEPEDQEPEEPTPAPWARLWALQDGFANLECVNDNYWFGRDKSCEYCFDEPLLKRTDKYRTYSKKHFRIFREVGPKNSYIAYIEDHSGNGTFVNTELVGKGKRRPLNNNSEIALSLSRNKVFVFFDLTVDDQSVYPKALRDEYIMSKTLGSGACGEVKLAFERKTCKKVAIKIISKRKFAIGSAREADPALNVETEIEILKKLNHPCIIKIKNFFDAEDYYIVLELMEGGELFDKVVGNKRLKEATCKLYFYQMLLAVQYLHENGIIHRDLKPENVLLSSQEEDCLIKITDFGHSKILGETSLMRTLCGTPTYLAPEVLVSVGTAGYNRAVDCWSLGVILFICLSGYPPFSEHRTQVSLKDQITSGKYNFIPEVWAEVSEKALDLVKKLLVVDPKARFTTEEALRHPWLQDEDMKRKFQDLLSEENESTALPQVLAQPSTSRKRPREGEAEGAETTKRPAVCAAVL
UniProt Q96SZ6: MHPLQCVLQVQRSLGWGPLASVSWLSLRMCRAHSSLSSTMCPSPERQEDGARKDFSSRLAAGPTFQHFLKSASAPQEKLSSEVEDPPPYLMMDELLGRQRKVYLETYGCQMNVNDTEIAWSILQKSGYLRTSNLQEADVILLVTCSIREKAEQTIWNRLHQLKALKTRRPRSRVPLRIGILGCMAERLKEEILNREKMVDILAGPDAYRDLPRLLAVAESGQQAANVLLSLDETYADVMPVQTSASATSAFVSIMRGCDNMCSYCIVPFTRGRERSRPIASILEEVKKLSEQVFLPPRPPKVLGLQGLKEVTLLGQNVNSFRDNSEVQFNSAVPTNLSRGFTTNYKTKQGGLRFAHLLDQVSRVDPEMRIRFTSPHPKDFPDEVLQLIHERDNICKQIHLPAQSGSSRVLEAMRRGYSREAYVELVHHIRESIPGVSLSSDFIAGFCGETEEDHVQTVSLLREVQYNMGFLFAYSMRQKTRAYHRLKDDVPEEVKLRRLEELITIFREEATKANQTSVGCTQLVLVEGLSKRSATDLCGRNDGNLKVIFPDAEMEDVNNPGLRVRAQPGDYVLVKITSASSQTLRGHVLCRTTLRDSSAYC
UniProt Q8TD26: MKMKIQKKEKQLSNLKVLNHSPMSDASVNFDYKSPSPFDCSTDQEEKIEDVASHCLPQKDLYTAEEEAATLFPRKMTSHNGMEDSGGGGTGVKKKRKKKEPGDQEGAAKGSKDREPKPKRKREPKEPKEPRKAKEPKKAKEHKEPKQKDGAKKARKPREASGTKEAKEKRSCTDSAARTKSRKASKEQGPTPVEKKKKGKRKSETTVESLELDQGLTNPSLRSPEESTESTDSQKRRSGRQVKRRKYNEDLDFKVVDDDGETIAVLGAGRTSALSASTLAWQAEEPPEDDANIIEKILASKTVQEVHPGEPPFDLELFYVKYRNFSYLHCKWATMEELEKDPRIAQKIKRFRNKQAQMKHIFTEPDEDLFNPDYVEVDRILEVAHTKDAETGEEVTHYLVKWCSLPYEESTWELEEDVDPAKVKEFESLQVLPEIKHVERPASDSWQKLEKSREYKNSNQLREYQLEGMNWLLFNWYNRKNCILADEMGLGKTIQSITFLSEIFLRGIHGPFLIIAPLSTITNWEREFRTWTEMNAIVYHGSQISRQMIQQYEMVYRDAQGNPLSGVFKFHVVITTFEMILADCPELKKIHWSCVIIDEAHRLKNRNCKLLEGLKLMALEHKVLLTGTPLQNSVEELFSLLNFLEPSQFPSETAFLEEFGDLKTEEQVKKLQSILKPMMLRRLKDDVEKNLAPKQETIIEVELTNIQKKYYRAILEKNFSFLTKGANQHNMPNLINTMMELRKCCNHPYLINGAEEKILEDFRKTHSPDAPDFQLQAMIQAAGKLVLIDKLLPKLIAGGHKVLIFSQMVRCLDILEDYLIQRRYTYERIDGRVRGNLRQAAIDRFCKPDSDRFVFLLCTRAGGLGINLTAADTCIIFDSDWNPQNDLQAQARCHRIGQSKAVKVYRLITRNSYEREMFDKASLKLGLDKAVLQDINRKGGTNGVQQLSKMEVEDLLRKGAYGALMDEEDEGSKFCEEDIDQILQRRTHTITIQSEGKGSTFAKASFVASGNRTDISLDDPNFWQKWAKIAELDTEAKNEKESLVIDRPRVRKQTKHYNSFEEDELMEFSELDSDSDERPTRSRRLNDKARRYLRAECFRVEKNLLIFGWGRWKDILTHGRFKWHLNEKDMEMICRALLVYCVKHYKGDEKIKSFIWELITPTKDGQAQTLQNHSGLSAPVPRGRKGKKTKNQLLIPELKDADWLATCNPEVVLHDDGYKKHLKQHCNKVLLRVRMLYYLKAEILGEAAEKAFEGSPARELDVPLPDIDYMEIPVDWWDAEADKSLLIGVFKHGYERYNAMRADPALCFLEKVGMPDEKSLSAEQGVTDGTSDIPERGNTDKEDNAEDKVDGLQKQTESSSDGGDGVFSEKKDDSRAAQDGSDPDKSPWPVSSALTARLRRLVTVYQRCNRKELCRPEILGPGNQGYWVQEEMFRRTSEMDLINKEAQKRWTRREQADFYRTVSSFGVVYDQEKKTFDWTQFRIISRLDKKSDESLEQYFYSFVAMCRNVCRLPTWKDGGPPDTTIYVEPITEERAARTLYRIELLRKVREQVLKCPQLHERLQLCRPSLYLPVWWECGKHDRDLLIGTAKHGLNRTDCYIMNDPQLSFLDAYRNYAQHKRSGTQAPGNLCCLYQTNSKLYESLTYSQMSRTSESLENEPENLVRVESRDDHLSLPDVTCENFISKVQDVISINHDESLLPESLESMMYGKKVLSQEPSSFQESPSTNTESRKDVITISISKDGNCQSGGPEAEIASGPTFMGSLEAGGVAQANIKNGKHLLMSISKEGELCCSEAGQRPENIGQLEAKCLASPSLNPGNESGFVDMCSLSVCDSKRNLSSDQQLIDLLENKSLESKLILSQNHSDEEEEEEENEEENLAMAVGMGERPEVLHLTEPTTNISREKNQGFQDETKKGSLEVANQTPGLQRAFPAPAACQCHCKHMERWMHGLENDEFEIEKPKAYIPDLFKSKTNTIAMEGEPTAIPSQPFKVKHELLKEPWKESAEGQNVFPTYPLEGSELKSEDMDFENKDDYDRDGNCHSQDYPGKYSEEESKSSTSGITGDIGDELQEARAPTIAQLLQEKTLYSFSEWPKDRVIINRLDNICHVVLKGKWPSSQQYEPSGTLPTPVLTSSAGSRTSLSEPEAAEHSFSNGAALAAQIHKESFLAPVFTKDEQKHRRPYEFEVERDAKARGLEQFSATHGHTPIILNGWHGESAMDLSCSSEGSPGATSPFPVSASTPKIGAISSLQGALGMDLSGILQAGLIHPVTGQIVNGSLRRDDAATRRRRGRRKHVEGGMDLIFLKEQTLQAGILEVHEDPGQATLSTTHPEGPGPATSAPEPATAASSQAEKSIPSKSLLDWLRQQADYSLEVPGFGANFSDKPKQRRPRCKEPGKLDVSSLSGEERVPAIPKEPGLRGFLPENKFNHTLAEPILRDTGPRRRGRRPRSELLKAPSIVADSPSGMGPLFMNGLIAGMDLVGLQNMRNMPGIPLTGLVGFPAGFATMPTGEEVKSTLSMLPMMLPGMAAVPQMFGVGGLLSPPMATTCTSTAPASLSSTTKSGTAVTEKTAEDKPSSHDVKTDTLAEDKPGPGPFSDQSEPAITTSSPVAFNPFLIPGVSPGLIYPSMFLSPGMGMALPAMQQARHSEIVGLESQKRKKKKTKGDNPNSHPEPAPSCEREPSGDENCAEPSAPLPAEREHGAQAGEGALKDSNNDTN
UniProt P11802: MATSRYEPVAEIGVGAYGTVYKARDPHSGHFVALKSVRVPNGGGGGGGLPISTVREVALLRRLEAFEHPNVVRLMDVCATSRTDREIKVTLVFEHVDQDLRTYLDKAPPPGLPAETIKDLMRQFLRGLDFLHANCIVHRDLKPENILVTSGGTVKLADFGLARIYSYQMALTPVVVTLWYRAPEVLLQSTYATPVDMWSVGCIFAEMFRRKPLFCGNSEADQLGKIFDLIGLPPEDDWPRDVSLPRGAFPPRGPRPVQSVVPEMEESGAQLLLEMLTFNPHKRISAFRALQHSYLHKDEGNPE
UniProt Q9Y259: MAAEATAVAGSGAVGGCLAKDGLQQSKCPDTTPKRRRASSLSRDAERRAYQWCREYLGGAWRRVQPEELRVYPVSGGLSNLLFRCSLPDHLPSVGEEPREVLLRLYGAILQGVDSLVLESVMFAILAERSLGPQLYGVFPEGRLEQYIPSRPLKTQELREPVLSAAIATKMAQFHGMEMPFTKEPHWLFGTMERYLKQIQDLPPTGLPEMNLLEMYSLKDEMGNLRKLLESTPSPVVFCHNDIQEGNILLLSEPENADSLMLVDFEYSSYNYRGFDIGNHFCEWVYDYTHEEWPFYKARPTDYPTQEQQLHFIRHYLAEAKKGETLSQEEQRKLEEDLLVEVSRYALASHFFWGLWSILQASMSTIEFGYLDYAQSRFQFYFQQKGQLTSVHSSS
UniProt P06493, whole entry, looked up: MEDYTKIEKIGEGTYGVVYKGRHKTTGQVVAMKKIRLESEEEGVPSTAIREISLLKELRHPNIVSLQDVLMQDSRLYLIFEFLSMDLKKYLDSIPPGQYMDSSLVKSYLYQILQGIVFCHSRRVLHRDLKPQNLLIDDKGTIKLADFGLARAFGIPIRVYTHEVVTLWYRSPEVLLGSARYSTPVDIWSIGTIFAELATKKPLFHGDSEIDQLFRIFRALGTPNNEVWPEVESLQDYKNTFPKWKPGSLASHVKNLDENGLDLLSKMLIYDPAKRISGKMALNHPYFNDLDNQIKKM
UniProt Q9NX63: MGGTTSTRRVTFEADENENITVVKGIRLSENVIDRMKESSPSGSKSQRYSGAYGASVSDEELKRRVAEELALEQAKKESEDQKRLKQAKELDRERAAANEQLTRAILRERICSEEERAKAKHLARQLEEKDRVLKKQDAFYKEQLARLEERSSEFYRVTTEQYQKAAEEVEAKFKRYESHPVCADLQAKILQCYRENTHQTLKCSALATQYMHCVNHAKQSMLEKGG
UniProt Q9NYV4, whole entry, looked up: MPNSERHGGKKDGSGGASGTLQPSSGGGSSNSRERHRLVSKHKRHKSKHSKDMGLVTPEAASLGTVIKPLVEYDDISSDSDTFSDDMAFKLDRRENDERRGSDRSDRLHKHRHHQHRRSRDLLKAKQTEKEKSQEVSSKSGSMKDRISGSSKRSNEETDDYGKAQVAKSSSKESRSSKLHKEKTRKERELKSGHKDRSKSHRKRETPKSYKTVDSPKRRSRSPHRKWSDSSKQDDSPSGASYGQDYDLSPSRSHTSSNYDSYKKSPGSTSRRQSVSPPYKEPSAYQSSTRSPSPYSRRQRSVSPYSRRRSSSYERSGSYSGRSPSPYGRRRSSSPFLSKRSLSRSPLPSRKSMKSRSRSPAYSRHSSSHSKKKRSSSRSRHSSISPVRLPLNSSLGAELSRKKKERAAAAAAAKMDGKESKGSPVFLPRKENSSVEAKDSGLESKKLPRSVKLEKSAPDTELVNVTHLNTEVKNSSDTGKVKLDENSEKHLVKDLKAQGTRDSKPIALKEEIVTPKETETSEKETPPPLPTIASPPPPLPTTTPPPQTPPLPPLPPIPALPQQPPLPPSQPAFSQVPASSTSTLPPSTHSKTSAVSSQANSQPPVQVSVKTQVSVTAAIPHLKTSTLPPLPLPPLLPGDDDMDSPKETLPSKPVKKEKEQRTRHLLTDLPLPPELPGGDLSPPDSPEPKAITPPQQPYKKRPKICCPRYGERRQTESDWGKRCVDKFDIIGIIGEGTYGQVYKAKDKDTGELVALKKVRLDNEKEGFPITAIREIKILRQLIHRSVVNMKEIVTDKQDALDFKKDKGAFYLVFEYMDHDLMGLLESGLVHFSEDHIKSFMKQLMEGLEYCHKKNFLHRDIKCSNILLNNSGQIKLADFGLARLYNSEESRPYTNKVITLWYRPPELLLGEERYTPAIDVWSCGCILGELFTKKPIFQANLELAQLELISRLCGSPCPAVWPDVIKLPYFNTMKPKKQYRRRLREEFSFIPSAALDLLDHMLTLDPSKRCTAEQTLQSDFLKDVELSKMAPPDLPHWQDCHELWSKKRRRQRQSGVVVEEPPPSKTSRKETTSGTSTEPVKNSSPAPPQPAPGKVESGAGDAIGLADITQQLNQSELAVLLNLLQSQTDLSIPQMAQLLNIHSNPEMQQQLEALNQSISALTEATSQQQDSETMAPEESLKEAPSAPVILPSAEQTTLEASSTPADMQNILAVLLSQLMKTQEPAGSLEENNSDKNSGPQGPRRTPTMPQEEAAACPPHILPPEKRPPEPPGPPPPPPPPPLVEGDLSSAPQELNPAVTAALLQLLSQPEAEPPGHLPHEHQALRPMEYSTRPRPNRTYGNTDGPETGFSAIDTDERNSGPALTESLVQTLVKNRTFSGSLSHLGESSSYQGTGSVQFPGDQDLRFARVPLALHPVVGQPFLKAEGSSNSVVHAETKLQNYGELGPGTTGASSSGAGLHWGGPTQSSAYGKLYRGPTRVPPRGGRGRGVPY

Legend:
Assay in all cases: log2 fold change, soluble protein after heating vs DMSO (PISA); higher = thermal stabilisation; K562 cells, 10 uM, 30 min; active = over 0.2 and 3.5 SD of the protein, either way, in both replicates (recomputed)
[1] = compound: CC1=C(C=C(C=C1)NC(=O)C2=CC(=CC=C2)C(C)(C)C#N)NC3=CC4=C(C=C3)N=CN(C4=O)C
In short: (§1)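 Thermal stability values are relative to control samples and come from duplicates. They are expressed as log2 fold changes. For measurement, K562 cells (2×10^6 cells/mL) received 10 μM compound for 30 min, and aliquots were heated for 3 min over 48°C-58°C, pooled, and extracted at 4°C in PBS with 0.5% NP-40. Soluble protein, the supernatant after 21,000xg for 90 min, was quantified by TMTpro 16plex LC-MS/MS with equalised channel sums.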

[2] = compound: CC1=C(C=C(C=C1)NC(=O)C2=CC(=CC=C2)N(C)C)NC(=O)C3=CC=C(C=C3)O
In short: as §1

[3] = compound: CC1=CC=C(C=C1)SC2=C3C=C(SC3=CN=C2)C(=O)N
In short: as §1

[4] = compound: CC1=NC(=CC=C1)C2=C(N=C(N2)C(C)(C)C)C3=CC4=NC=CN=C4C=C3
In short: as §1

Nexturastat A = compound: CCCCN(Cc1ccc(C(=O)NO)cc1)C(=O)Nc1ccccc1 [Nexturastat A]
In short: as §1

vemurafenib = compound: CCCS(=O)(=O)Nc1ccc(F)c(C(=O)c2c[nH]c3ncc(-c4ccc(Cl)cc4)cc23)c1F [vemurafenib]
In short: as §1

[5] = compound: CCCS(=O)(=O)Nc1ccc(F)c(C(=O)c2c[nH]c3ncc(Cl)cc23)c1F
In short: as §1

[6] = compound: CCCc1cc(C)[nH]c(=O)c1CNC(=O)c1cc(-c2ccnc(N3CCN(C)CC3)c2)cc2c1cnn2C(C)C
In short: as §1

givinostat = compound: CCN(CC)Cc1ccc2cc(COC(=O)Nc3ccc(C(=O)NO)cc3)ccc2c1 [givinostat]
In short: as §1

barasertib = compound: CCN(CCCOc1ccc2c(Nc3cc(CC(=O)Nc4cccc(F)c4)[nH]n3)ncnc2c1)CCOP(=O)(O)O [barasertib]
In short: as §1

Target | log2 fold change [1] | log2 fold change [2] | log2 fold change [3] | log2 fold change [4] | log2 fold change (Nexturastat A) | log2 fold change (vemurafenib) | log2 fold change [5] | log2 fold change [6] | log2 fold change (givinostat) | log2 fold change (barasertib)
CHEK2 isoform 9 (UniProt O96017) | inactive: -0.006 | inactive: -0.001 | inactive: -0.011 | inactive: -0.014 | inactive: -0.079 | inactive: -0.033 | inactive: -0.021 | inactive: -0.015 | inactive: -0.019 | inactive: 0.05
CDYL (UniProt Q9Y232) | inactive: -0.008 | inactive: 0.019 | inactive: -0.028 | inactive: 0.02 | inactive: -0.037 | inactive: -0.01 | inactive: -0.063 | inactive: 0.02 | inactive: 0.005 | inactive: 0.028
CHAMP1 (UniProt Q96JM3) | inactive: -0.003 | inactive: -0.018 | inactive: 0.005 | inactive: -0.012 | inactive: 0.011 | inactive: -0.01 | inactive: -0.011 | inactive: -0.003 | inactive: 0.032 | inactive: 0.027
CHID1 (UniProt Q9BWS9) | inactive: 0.018 | inactive: 0.023 | inactive: -0.001 | inactive: -0.056 | inactive: 0.092 | inactive: -0.058 | inactive: -0.03 | inactive: 0.051 | inactive: 0.028 | inactive: -0.034
CELF1 isoform 4 (UniProt Q92879) | inactive: 0.12 | inactive: -0.046 | inactive: 0.048 | inactive: 0.062 | inactive: 0.007 | inactive: 0.087 | inactive: 0.088 | inactive: 0.13 | inactive: 0.078 | inactive: 0.074
CELF2 isoform 3 (UniProt O95319) | inactive: 0.075 | inactive: 0.01 | inactive: 0.112 | inactive: -0.006 | inactive: -0.025 | inactive: 0.065 | inactive: 0.005 | inactive: -0.02 | inactive: -0.008 | inactive: 0.001
CDCA2 (UniProt Q69YH5) | inactive: -0.134 | inactive: 0.033 | inactive: -0.047 | inactive: -0.299 | active: 0.638 | inactive: -0.009 | inactive: -0.043 | inactive: -0.027 | inactive: 0.382 | –
CDK5RAP1 (UniProt Q96SZ6) | inactive: 0.014 | inactive: -0.04 | inactive: 0.002 | inactive: 0.05 | inactive: -0.065 | inactive: -0.007 | inactive: -0.035 | inactive: 0.066 | inactive: -0.166 | inactive: -0.005
CDKN1B (UniProt P46527) | inactive: -0.016 | inactive: -0.009 | inactive: -0.026 | inactive: 0 | inactive: 0.148 | inactive: -0.176 | inactive: -0.048 | inactive: 0.057 | inactive: 0.051 | inactive: -0.063
CEPT1 (UniProt Q9Y6K0) | inactive: 0.048 | inactive: 0.068 | inactive: 0.005 | inactive: 0.069 | inactive: -0.123 | inactive: 0.123 | inactive: 0.016 | inactive: -0.122 | inactive: -0.023 | inactive: 0.013
CHAF1B (UniProt Q13112) | inactive: 0.009 | inactive: 0.016 | inactive: -0.01 | inactive: -0.038 | inactive: -0.013 | inactive: -0.061 | inactive: -0.025 | inactive: -0.036 | inactive: -0.01 | inactive: -0.013
CERS5 (UniProt Q8N5B7) | inactive: -0.193 | inactive: -0.043 | inactive: 0.053 | inactive: 0.005 | inactive: -0.004 | inactive: -0.004 | inactive: 0.016 | inactive: 0.002 | inactive: -0.022 | inactive: -0.049
CHD3 isoform 3 (UniProt Q12873) | inactive: 0.03 | inactive: -0.035 | inactive: 0.016 | inactive: -0.077 | inactive: 0.056 | inactive: 0.113 | inactive: 0.138 | inactive: 0.081 | inactive: 0.226 | inactive: 0.046
CHEK1 (UniProt O14757) | inactive: -0.023 | inactive: -0.013 | inactive: 0.05 | inactive: 0.037 | inactive: -0.048 | inactive: 0.017 | inactive: 0 | inactive: -0.022 | inactive: 0.029 | inactive: 0.033
CHERP (UniProt Q8IWX8) | inactive: -0.042 | inactive: -0.088 | inactive: -0.053 | inactive: 0.003 | inactive: -0.006 | inactive: 0.018 | inactive: 0.127 | inactive: 0.075 | inactive: 0.107 | inactive: 0.055
CDC42SE1 (UniProt Q9NRR8) | inactive: 0.132 | inactive: 0.059 | inactive: 0.016 | inactive: -0.09 | inactive: -0.115 | inactive: -0.007 | inactive: 0.051 | inactive: -0.705 | inactive: -0.236 | inactive: 0.071
CDC73 (UniProt Q6P1J9) | inactive: -0.503 | inactive: 0 | inactive: -0.067 | inactive: -0.055 | inactive: 0.111 | inactive: 0.129 | inactive: 0.037 | inactive: 0.282 | inactive: 0.078 | inactive: 0.045
CGGBP1 (UniProt Q9UFW8) | inactive: 0.001 | inactive: 0.031 | inactive: -0.016 | inactive: 0.011 | inactive: 0.055 | inactive: 0.03 | inactive: -0.017 | inactive: -0.06 | inactive: 0.064 | inactive: 0
CHD6 (UniProt Q8TD26) | inactive: 0.177 | inactive: -0.008 | inactive: -0.29 | inactive: -0.324 | inactive: -0.284 | inactive: 0.12 | inactive: -0.125 | inactive: -0.092 | inactive: -0.104 | inactive: -0.1
CDK4 (UniProt P11802) | inactive: -0.077 | inactive: -0.003 | inactive: 0.015 | inactive: -0.005 | inactive: 0.166 | inactive: -0.161 | inactive: -0.128 | inactive: -0.025 | inactive: -0.009 | inactive: -0.023
CHMP4C (UniProt Q96CF2) | inactive: -0.173 | inactive: -0.01 | inactive: 0.02 | inactive: 0.081 | active: 0.443 | inactive: 0.019 | inactive: -0.022 | inactive: -0.021 | inactive: -0.07 | inactive: 0.01
CHCHD1 (UniProt Q96BP2) | inactive: -0.02 | inactive: -0.119 | inactive: 0.279 | inactive: 0.008 | inactive: 0.141 | inactive: -0.044 | inactive: 0.024 | inactive: -0.747 | inactive: 0.013 | inactive: -0.105
CERT isoform 3 (UniProt Q9Y5P4) | inactive: 0.154 | inactive: -0.103 | inactive: -0.039 | inactive: -0.001 | inactive: -0.048 | inactive: 0.101 | inactive: 0.061 | inactive: 0.02 | inactive: -0.027 | inactive: -0.002
CHKB (UniProt Q9Y259) | inactive: -0.159 | inactive: -0.003 | inactive: -0.01 | inactive: 0.029 | inactive: -0.04 | inactive: 0.145 | inactive: -0.011 | inactive: 0.023 | inactive: 0.051 | inactive: 0.28
CFDP1 (UniProt Q9UEE9) | inactive: -0.045 | inactive: 0.01 | inactive: 0.018 | inactive: 0.026 | inactive: -0.016 | inactive: -0.015 | inactive: -0.013 | inactive: -0.094 | inactive: 0.013 | inactive: -0.005
CDK1 (UniProt P06493) | inactive: 0.017 | inactive: -0.017 | inactive: 0.004 | inactive: 0.036 | inactive: -0.015 | inactive: 0.029 | inactive: 0.02 | inactive: 0.001 | inactive: 0.048 | inactive: 0.001
CDK11B (UniProt P21127) | inactive: -0.079 | inactive: 0.214 | inactive: -0.109 | inactive: 0.071 | inactive: 0.038 | inactive: 0.029 | inactive: -0.064 | inactive: -0.063 | inactive: 0.114 | inactive: 0.028
CHMP1B (UniProt Q7LBR1) | inactive: -0.033 | inactive: 0.026 | inactive: 0.033 | inactive: -0.034 | inactive: 0.046 | inactive: -0.097 | inactive: 0.028 | inactive: -0.074 | inactive: 0.039 | inactive: 0.008
CHCHD3 (UniProt Q9NX63) | inactive: -0.007 | inactive: 0.021 | inactive: 0.136 | inactive: 0.006 | inactive: -0.078 | inactive: -0.031 | inactive: -0.054 | inactive: -0.037 | inactive: -0.053 | inactive: -0.002
CDK12 (UniProt Q9NYV4) | inactive: 0.049 | inactive: -0.001 | inactive: -0.079 | inactive: -0.077 | inactive: 0.278 | inactive: -0.047 | inactive: -0.002 | inactive: 0.104 | inactive: 0.026 | inactive: -0.083

A run of entries from the list above:
Target | log2 fold change [1] | log2 fold change [2] | log2 fold change [3] | log2 fold change [4] | log2 fold change (Nexturastat A) | log2 fold change (vemurafenib) | log2 fold change [5] | log2 fold change [6] | log2 fold change (givinostat) | log2 fold change (barasertib)
CHMP4C (UniProt Q96CF2) | inactive: -0.173 | inactive: -0.01 | inactive: 0.02 | inactive: 0.081 | active: 0.443 | inactive: 0.019 | inactive: -0.022 | inactive: -0.021 | inactive: -0.07 | inactive: 0.01
CHCHD1 (UniProt Q96BP2) | inactive: -0.02 | inactive: -0.119 | inactive: 0.279 | inactive: 0.008 | inactive: 0.141 | inactive: -0.044 | inactive: 0.024 | inactive: -0.747 | inactive: 0.013 | inactive: -0.105
